Experimental findings from article PMC5203670, “Biosynthesis of selenate reductase in Salmonella enterica: critical roles for the signal peptide and DmsD” (Microbiology, 2016) are described below.

The target of the experiment is T1, T25-DmsD fusion protein (S. enterica DmsD attached to the C-terminus of T25) (Salmonella enterica serovar Typhimurium) (UniProt Q8ZPK0).
T1 sequence: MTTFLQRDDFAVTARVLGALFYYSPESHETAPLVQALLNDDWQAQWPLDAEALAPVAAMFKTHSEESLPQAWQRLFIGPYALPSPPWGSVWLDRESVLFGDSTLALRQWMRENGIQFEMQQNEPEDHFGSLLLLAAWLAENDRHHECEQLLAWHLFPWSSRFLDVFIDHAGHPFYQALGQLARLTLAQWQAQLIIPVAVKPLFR
Description: two-hybrid; bacterial adenylate cyclase two-hybrid (spYnfE-T18 and T25-DmsD) in E. coli MAE01 (ΔcyaA); cultures at 30 °C, β-galactosidase activity in Miller units, shown relative to the native pair.

No constants are given. Whether binding was seen depends on the method and setting. Binding can be weak; no strength is given. Sequences can lack the tags named with a protein.

In the case of “spYnfE-T18 fusion (42-residue YnfE Tat signal peptide at the N-terminus of T18) (Salmonella enterica serovar Typhimurium) (domain or fragment)”, the binding entry is recorded as “binds”.
